Assay results reported in PubChem BioAssay AID210 (DTP/NCI, 2004).
The list does not hold the whole screen: it gathers some chemical classes. Not every dose and run of a compound is shown. T/C is the treated group as % of the vehicle group. Some entries give survivors of the animals treated and no T/C: the source holds a T/C of zero for them, seemingly a mark for toxic or unscored doses. Counts of survivors are from the toxicity check (mostly the fifth day) where no day follows; animals may have died later. Schedule codes are those of the source, read here as Q, the interval in days (D) or hours (H), X, the number of doses. Where survival is the endpoint, this PubChem deposit counts one and a half times the control or more as active, and values a quarter to a half above the control carry no call in these data; other NCI protocols may use other cut-offs. Some entries were tested several times; their values stand side by side, smallest first.

Test system: CD2F1 mice, ip Colon 26 adenocarcinoma, median survival T/C
Experiment: NCI In Vivo Anticancer Drug Screen. Data for tumor model Colon 26 Adenocarcinoma (intraperitoneal) in CD2F1 (CDF1) mice
Conditions: T/C endpoint: median survival time, schedule: Q04DX003 (ip), higher T/C = longer survival
Protocol: The antitumor activity of compounds was measured in mice bearing transplantable tumors. Survival or tumor size were measured and the results are expressed as the measurement made in the treated group (T) divided by the measurement made in the vehicle treated control group (C). The tumor model used in this assay is Colon 26 Adenocarcinoma (intraperitoneal) in CD2F1 (CDF1) mice

Compound | T/C (dose: 6.25 mg/kg/injection, vehicle: saline with Tween-80) | T/C (dose: 12.5 mg/kg/injection, vehicle: saline with Tween-80) | T/C (dose: 25.0 mg/kg/injection, vehicle: saline with Tween-80) | T/C (dose: 50.0 mg/kg/injection, vehicle: saline with Tween-80) | survivor count (dose: 100.0 mg/kg/injection, vehicle: saline with Tween-80) | T/C (dose: 12.5 mg/kg/injection, vehicle: Klucel (hydroxypropylcellulose) (HPC)) | T/C (dose: 25.0 mg/kg/injection, vehicle: Klucel (hydroxypropylcellulose) (HPC)) | T/C (dose: 50.0 mg/kg/injection, vehicle: Klucel (hydroxypropylcellulose) (HPC)) | T/C (dose: 100.0 mg/kg/injection, vehicle: Klucel (hydroxypropylcellulose) (HPC)) | T/C (dose: 200.0 mg/kg/injection, vehicle: Klucel (hydroxypropylcellulose) (HPC)) | T/C (dose: 400.0 mg/kg/injection, vehicle: Klucel (hydroxypropylcellulose) (HPC))
Nc1cc([As]=O)ccc1O (stereo unspecified) | 109 % of control | 101 % of control | 118 % of control | 116 % of control | 0 of 10 |  |  |  |  |  | 
CC(=O)OC(SC(OC(C)=O)C(Cl)(Cl)Cl)C(Cl)(Cl)Cl (stereo unspecified) |  |  |  |  |  | 91 and 102 % of control | 94 and 102 % of control | 87 and 104 % of control | 93 and 102 % of control | 93 and 104 % of control | 89 and 102 % of control
